“Also recorded” adds a separate entry of the source.
Test system: pyrotinib metabolism in rat liver microsomes (RLMs)
Assay: In vitro drug-drug interaction study: azole inhibition of pyrotinib metabolism (M1 formation) in RLMs
Format: in vitro ADME, Sprague-Dawley (SD) rat
Conditions: for inhibition type: Lineweaver-Burk plot; for α: indicative of inhibition type
Protocol: The rats were anesthetized with 10% chloral hydrate after 12 h of starvation. […] The rat liver tissue was then accurately removed and transferred to Petri dishes at 0–4°C. The tissues were homogenized in 0.15 mol/L KCl-PBS buffer and stored at 4°C. The homogenate (CR30NX, Eppendorf, Germany) was centrifuged at 9000 rpm at 4°C for 30 min. The supernatant was transferred to another tube and was centrifuged at 105000 rpm at 4°C for 60 min. The precipitate containing liver microsomes was removed and suspended in 0.15 mol/L KCl-PBS buffer (containing 0.25 mol/L sucrose) and stored at −80°C for later use. The liver microsomal concentration was 8.838 mg/ml after the determination with the BCA protein quantification kit (Thermo Scientific, Waltham, MA, United States).
Waters Acquity UPLC I-Class (Waters, USA) was used to separate pyrotinib and midazolam. A binary solvent manager (BSM) and sample manager with a flow-through needle (SM-FTN) were used in the UPLC system. The metabolites’ effective separation was achieved using Acquity UPLC HSS T3 (100 × 2.1 mm, 1.8 μm particle size) (Waters Corporation, Milford, MA, USA) with a mobile phase of acetonitrile (solvent A) and 0.1% formic acid water containing 20 mmol ammonium acetate (solvent B). The gradient program was set as following: 0–0.3 min 10–30% A; 0.3–1 min 30–95% A; 1–2 min 95% A; 2–2.3 min 95–10% A. The mobile phase’s flow rate was 0.4 mL/min, the column temperature was set as 40 °C, and the injection volume was 2 μL. The XEVO TQD triple quadrupole mass spectrometer was equipped with an electrospray ionization (ESI) source, and the multiple reaction monitoring (MRM) mode was selected for quantification. The data were collected using the Mass lynx 4.1 software (Waters Corp.). Mass spectral data were obtained in positive electrospray mode (ESI+) in MRM mode. Nitrogen was used as desolvation (1000 L/h) and cone gases (50 L/h). The ion monitoring voltage conditions were as follows: capillary voltage, 2.5 kV; source temperature, 150°C; desolvation temperature, 500°C. Various reaction monitoring methods were used for quantitative analysis.
200 µl of the incubation mixture was set up as following: 0.3 mg/ml RLMs, 100 mM potassium phosphate buffer (pH 7.4), 1 mM NADPH, and three azole antifungal drugs. […] For fluconazole and itraconazole, the concentrations of them were all adjusted to 0.01, 0.1, 1, 5, 10, 50, and 100 µM. […] The ingredients were combined and pre-warmed for 5 min at 37°C. The reaction was initiated with NADPH and incubated at 37°C for 30 min. Then, 200 µl of acetonitrile-midazolam solution (containing midazolam 200 ng/ml) was added and the mixture was vortexed for 2 min to stop the reaction. After been centrifuged at 13000 rpm for 5 min, 2 µl aliquot of the supernatant was then used for the UPLC-MS/MS analysis.
GraphPad Prism 7.0 software (GraphPad Software Inc.) was used to calculate the enzyme kinetic parameters of substrates which include Vmax, Km, IC50, Ki, and αKi values. The enzyme inhibition mode was obtained using the Linear Lineweaver-Burk plots. The PK characteristics, maximal plasma concentration (Cmax), time to peak plasma concentration (Tmax), apparent volume of distribution (Vz/F), area under the plasma concentration-time curve (AUC), elimination half-life (t1/2), plasma clearance (Cl/F), and mean residence time (MRT), were calculated using DAS (Drug and Statistics) software (Version 3.2.8, The People’s Hospital of Lishui, China). […]

SMILES	inhibition type	α
CC(=O)N1CCN(c2ccc(OCC3COC(Cn4ccnc4)(c4ccc(Cl)cc4Cl)O3)cc2)CC1 (centres unmarked) [ketoconazole, Ketoconazole]	mixed-type inhibition of noncompetitive/competitive; also recorded: mixed inhibition type of noncompetitive/competitive	
CCC(C)n1ncn(-c2ccc(N3CCN(c4ccc(OCC5COC(Cn6cncn6)(c6ccc(Cl)cc6Cl)O5)cc4)CC3)cc2)c1=O (centres unmarked) [itraconazole, Itraconazole]	mixed-type inhibition of noncompetitive/competitive	0.673
OC(Cn1cncn1)(Cn1cncn1)c1ccc(F)cc1F [fluconazole, Fluconazole]	mixed-type inhibition of noncompetitive/uncompetitive	1.259

— paper PMC9490176 (Frontiers in Pharmacology, 2022)
